No constants are given. Whether binding was seen depends on the method and setting. Some entries that bind do so weakly or less than the wild type.
Biological target: Frizzled 5 (FZD5) on endometrial mesenchymal stem-like cells (human (endogenous in eMSC)) (UniProt Q13467)
Test: flow cytometry on cells; Alexa Fluor 488-labelled rhWNT5A on eMSC, 2 h at 4°C in the dark; cells transfected the day before with siCtrl or siFZD5 (relative fluorescent intensity siCtrl 1.03 ± 0.09 fold, siFZD5 0.75 ± 0.03 fold, n = 7); only the binder purified

By UniProt entry, the sequences of proteins in these tests, tags left out. Residues count along the entry.
UniProt Q13467, residues 27-585: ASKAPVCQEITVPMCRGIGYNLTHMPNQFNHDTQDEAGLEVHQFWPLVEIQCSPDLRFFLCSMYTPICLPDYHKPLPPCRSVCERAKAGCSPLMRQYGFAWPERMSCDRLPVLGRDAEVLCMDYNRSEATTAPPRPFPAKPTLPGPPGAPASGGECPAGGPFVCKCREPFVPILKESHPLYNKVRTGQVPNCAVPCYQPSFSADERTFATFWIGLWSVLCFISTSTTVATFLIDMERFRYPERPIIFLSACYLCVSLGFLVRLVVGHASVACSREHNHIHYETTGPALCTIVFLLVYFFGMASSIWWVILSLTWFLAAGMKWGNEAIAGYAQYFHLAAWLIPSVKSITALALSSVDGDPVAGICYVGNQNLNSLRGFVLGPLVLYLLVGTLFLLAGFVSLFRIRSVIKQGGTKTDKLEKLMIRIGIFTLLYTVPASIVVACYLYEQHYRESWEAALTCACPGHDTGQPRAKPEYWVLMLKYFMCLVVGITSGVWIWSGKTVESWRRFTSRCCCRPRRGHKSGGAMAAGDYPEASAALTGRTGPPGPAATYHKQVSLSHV

binding: binds
B1: Human recombinant WNT5A protein (ligand, UniProt P41221 62-380)
chain: IIGAQPLCSQLAGLSQGQKKLCHLYQDHMQYIGEGAKTGIKECQYQFRHRRWNCSTVDNTSVFGRVMQIGSRETAFTYAVSAAGVVNAMSRACREGELSTCGCSRAARPKDLPRDWLWGGCGDNIDYGYRFAKEFVDARERERIHAKGSYESARILMNLHNNEAGRRTVYNLADVACKCHGVSGSCSLKTCWLQLADFRKVGDALKEKYDSAAAMRLNSRGKLVQVNSRFNSPTTQDLVYIDPSPDYCVRNESTGSLGTQGRLCNKTSEGMDGCELMCCGRGYDQFKTVQTERCHCKFHWCCYVKCKKCTEIVDQFVCK
modifications: Alexa Fluor 488 dye (Alexa Fluor 488 microscale protein labeling kit)
